Measurements as given in paper PMC4136963, “Structure-Based Design and Synthesis of Antiparasitic Pyrrolopyrimidines Targeting Pteridine Reductase 1” (Journal of Medicinal Chemistry, 2014).

Test system: trypanosomes
Experiment: LC-MS measurement of accumulation into trypanosomes
Details: LC-MS measurements

| Structure (SMILES) | accumulation into trypanosomes |
| --- | --- |
| Nc1nc2[nH]c(-c3ccccc3)c(-c3ccccc3)c2c(=O)[nH]1 [34a, 2-Amino-5,6-diphenyl-3,7-dihydro-4H-pyrrolo[2,3-d]pyrimidin-4-one] | significant accumulation |
| Nc1nc(N)c2c(-c3ccccc3)c(-c3ccccc3)[nH]c2n1 [35a, 5,6-Diphenyl-7H-pyrrolo[2,3-d]pyrimidine-2,4-diamine] | significant accumulation |
